Values joined by “and” are separate entries in the source; they are usually repeats but may differ in a detail not shown here. Equal entries are not always repeated. This continues a long series; more values of the same kind are listed elsewhere.
Test system: DMS-114 complex spheroids with HUVEC/MSC, growth % test/control
Experiment: Anticancer human tumor DMS-114 cell line growth inhibition [AhR];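 further: spheroids exposed to agents for 7 days before readout; 100% = DMSO vehicle control wells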
Details: stronger effect = lower value; active means viability on the fitted dose curve at most 10% of control; inactive means the rest
Description: Multicellular complex tumor spheroid response to aryl hydrocarbon receptor antagonists in combination with a variety of drugs and investigational agents in selected tumor cell lines
The current study was undertaken to assess response to aryl hydrocarbon receptor antagonists in combination with standard-of-care drugs and investigational agents in solid tumor complex spheroid models. Complex spheroids include a stromal component modeled by human endothelial cells (HUVEC) and fibroblasts modeled by human mesenchymal stem cells (MSCs). The concentration ranges selected for each drug and investigational agent were based upon clinically achievable concentrations if the clinical Cmax of the agent was known.
Compounds. The drugs and investigational agents: BAY 2416964 (NSC825713), GNF351 (NSC835774), CH-223191 (NSC835775), CPI-455 (NSC825282), aza-TdCyd (NSC777586), decitabine (NSC127716), belinostat (NSC758774), entinostat (NSC756642), pevonedistat (NSC761192), tazemetostat (NSC777109), talazoparib (NSC765396), olaparib (NSC753686), selinexor (NSC780203), nedisertib (M3814, NSC802822), bortezomib (NSC756655), venetoclax (NSC766270), doxorubicin (NSC123127), elimusertib (BAY189344, NSC800525), ceralasertib (AZD6738, NSC777638), TAK-243 (NSC785004), alisertib (NSC759677), etoposide (NSC141540), topotecan (NSC609699), eribulin (NSC707389), gemcitabine (NSC613327), carboplatin (NSC241240), cisplatin (NSC119875), and SN-38 (NSC673596) were obtained from the National Cancer Institute (NCI) Developmental Therapeutics Program Chemical Repository (32). The FDA-approved anticancer drug set is available from the Developmental Therapeutics Program at https://dtp.cancer.gov/organization/dscb/obtaining/available plates.htm. […] The stock solutions were prepared in dimethyl sulfoxide (DMSO, Sigma-Aldrich, St. Louis, MO, cat. D2650), except for the platinum compounds which were prepared in saline (Quality Biological, Gaithersburg, MD, cat. 114-055-101), at 800-fold the tested concentration and stored at -70 degrees C prior to their use. All drugs and investigational agents were tested over a range starting from a high concentration at or near the clinical Cmax and decreasing in half-log increments. If the clinical Cmax for an agent had not been determined, the highest concentration tested was 10 microM (Table 1).
Cell Culture. All cells were maintained in an incubator at 37 degrees C and 5% CO2 with 95% humidity. The PDC lines were cultured according to standard operating procedures established by the NCI PDMR (https://pdmr.cancer.gov). Briefly, all PDCs were thawed and cultured in Matrigel-coated flasks prepared with a working solution of 1X Ham's F-12 nutrient mix, without supplementation (Invitrogen, Waltham, MA, cat. 11765054), 100 U/mL penicillin-streptomycin (Invitrogen, cat. 15140122), and 2.5% Matrigel (Corning Inc., Corning, NY, cat. 354248) for the first three passages. All PDCs were cultured in complete DMEM/F-12 media containing advanced DMEM/F-12 (Invitrogen, cat. 12634028), 4.9% defined fetal bovine serum, heat inactivated (HyClone Laboratories Inc., Logan, UT, cat. SH30070.03HI), 389 ng/mL hydrocortisone (Sigma-Aldrich, cat. H4001), 9.7 ng/mL human EGF recombinant protein (Invitrogen, cat. PHG0313), 23.4 microg/mL adenine (Sigma-Aldrich, cat. A2786), 97.3 U/mL penicillin-streptomycin (Invitrogen, cat. 15140122), 1.9 mM L-glutamine (Invitrogen, cat. 25030081), and 9.7 microM Y-27632 dihydrochloride (Tocris Bioscience, Bristol, United Kingdom, cat. 1254). The PDCs were cultured in complete DMEM/F12 media without 10 microM Y-27632 dihydrochloride for at least two passages prior to the screen. The established cell lines NCI-H1341 and […] were cultured in DMEM/F-12, HEPES (Invitrogen, cat. 11330032), 5% defined fetal bovine serum (HyClone Laboratories Inc., cat. SH30070.03), ITS premix universal culture supplement [insulin (5 microg/mL), transferrin (5 microg/mL), and selenious acid (5 ng/mL)] […]

Measured: viability, T/C

Cc1cncc(-c2nc(NCCc3c[nH]c4ccccc34)c3ncn(C(C)C)c3n2)c1
inactive: compound 0.1 µM 93.8% [middle of 5 runs] | compound 0.316 µM 96.2% [middle of 4 runs] | compound 1 µM 92.4% and 103% and 95.2% | compound 3.16 µM 90.5% [middle of 5 runs] | compound 10 µM 38.5% [middle of 5 runs]

Cc1ccccc1N=Nc1ccc(NC(=O)c2ccnn2C)c(C)c1
inactive: compound 0.1 µM 99.3% and 91% | compound 0.316 µM 103% and 98.7% and 93.9% | compound 1 µM 95% [middle of 5 runs] | compound 3.16 µM 97.4% [middle of 4 runs] | compound 10 µM 93.8% [middle of 4 runs]

CC(CO)NC(=O)c1cc(-c2ccc(Cl)cc2)nn(-c2cnn(C)c2)c1=O (centres undefined)
inactive: compound 0.1 µM 96.1% and 93.6% and 92% | compound 0.316 µM 97% [middle of 4 runs] | compound 1 µM 88.3% and 92.9% and 106% | compound 10 µM 95% [middle of 6 runs]

Source: PubChem BioAssay AID1919008 (Molecular Pharmacology Branch, DTP, NCI, 2023)
